No constants are given. Whether binding was seen depends on the method and setting. In cells and extracts the contact can be indirect. Some results given as binding are weak or reduced against the parent protein; the word gives no strength. One block for each binder: values may come before it.
How the values were obtained:
claudin-2, O88552 = target: T1, claudin-2, O88552; test: co-IP; HEK293 cells transiently transfected with the tagged claudins; lysed in an EDTA and nonidet P-40 containing Tris buffer; lysate incubated with mouse anti-myc antibody and precipitated with protein G Dynabeads overnight at 4 °C; eluted with Laemmli buffer; immunoblot with anti-HA, then reprobed with anti-myc; three repeats; conditions: remark: other sources report otherwise
T1 chain: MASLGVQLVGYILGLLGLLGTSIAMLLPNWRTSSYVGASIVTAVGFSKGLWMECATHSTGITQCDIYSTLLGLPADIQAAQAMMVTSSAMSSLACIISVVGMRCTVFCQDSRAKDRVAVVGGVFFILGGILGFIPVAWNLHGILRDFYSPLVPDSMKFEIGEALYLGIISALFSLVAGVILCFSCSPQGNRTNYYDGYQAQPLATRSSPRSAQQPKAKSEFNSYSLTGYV

claudin-2 = target: T2, claudin-2 (UniProt O88552); test: as above
T2 sequence: T1 chain

B1: claudin-2, O88552 1-230 (protein)
chain: T1 chain
binding (claudin-2, O88552): binds

binding (claudin-2): no binding
B2: claudin-12 (protein, UniProt Q9ET43 1-244)
chain: MGCRDVHAATVLSFLCGIASVAGLFAGTLLPNWRKLRLITFNRNEKNLTIYTGLWVKCARYDGSSDCLMYDRTWYLSVDQLDLRVLQFALPLSIVIAMGALLLCLIGMCNTAFNSSVPNIKLAKCLVNSAGCHLVAGLLFFLAGTVSLSPSIWAIFYNSHLNRKFEPVFTFDYAVFVTIASSGGLFMTALLLFVWYCACKSLSSPFWQPLYSHAPGMHTYSQPYSSRSRLSAIEIDIPVVSHST

Source: PMC8694054
